The supplement of paper PMC8497498
This is one part of the list. The data scatter; read single values as rough.

How the values were obtained:
Settings in all cases: 10 µM
[1] = test system: Plasmodium vivax liver stage (primary human hepatocyte culture); experiment: hypnozoite quantity inhibition (% inhibition); higher = more active against hypnozoites
[2] = test system: Plasmodium vivax liver stage (primary human hepatocyte culture); experiment: schizont net growth area inhibition (% inhibition); higher = more active against liver schizonts
[3] = test system: primary human hepatocytes; experiment: hepatic nuclei reduction relative to DMSO (100 - % of negative control); higher = more toxic to hepatocytes
[4] = assay mode: Prophylactic (treated before or shortly after infection), fixed day 6 post-infection
[5] = assay mode: Radical Cure (treated from day 5 post-infection for 3 days), fixed day 8 post-infection

| SMILES | hypnozoite quantity inhibition [1, 4] | hypnozoite quantity inhibition [1, 5] | schizont net growth area inhibition [2, 4] | schizont net growth area inhibition [2, 5] | hepatic nuclei reduction [3, 4] | hepatic nuclei reduction [3, 5] |
| --- | --- | --- | --- | --- | --- | --- |
| O=C(Nc1ccsc1C(=O)NC1CCCCC1)c1ccc(F)cc1 | -26.6 | 8.4 | -33.2 | 29.9 | -4% | -5% |
| CCCn1nnc(NC(=O)COc2ccc(C3CCCCC3)cc2)n1 | 28 | 22 | 53.8 | -13.4 | 10% | 10% |
| COC(=O)c1c(NC(=O)c2c(F)c(F)c(F)c(F)c2F)sc2c1CCCCC2 | 0 | -25 | -3.5 | -39.3 | 8% | -2% |
| COc1ccc(-c2cn3c(C(=O)Nc4ccccc4Cl)c(-c4ccccc4)c4c3n2CCCC4)cc1 | -19.1 | 22.1 | 25.4 | -11.7 | -24% | -3% |
| CN1CCN(S(=O)(=O)c2ccc(-c3ccc4c(Nc5ccc6nn[nH]c6c5)ccnc4c3)cc2)CC1 | -4 | -2 | -9.2 | -34.3 | 1% | -6% |
| Cc1ccccc1C(=O)N1N=C(Nc2ccccc2)SC1(C)C | 19 | -17 | -56.2 | 38.4 | -6% | -2% |
| O=C(Nc1ccnc(-c2cccnc2)n1)c1cc(C(F)(F)F)cc(C(F)(F)F)c1 | 14 | -23 | 14.2 | -47.7 | -7% | 0% |
| O=C(Nc1ccccc1O)c1ccc(-c2ccc(Cl)cc2Cl)o1 | 8.2 | 48.2 | -19 | -43.6 | -1% | -8% |
| N#Cc1ccc(-c2ccc(OCC(N)=O)cc2)cc1 | -6 | -36 | 3 | -115 | -4% | 8% |
| CCC(Sc1nc2ccccc2o1)C(=O)Nc1nccs1 (stereo not given) | -58 | 1 | -37.3 | -106 | -5% | -2% |
| O=C(N[C@H](Cc1ccccc1)C(=O)Nc1ccccc1N1CCOCC1)c1cccs1 | 13 | -10 | 10.1 | -83 | -7% | 3% |
| CC1CCN(Cc2c(O)ccc3cc(-c4nc5ccccc5s4)c(=O)oc23)CC1 | -11 | 42.7 | 37.5 | -51 | -30% | -14% |
| Cc1cccnc1NC(=O)c1cccc(OCc2c(C)noc2C)c1 | 15 | -33 | 6.6 | -30.8 | -7% | -9% |
| CCc1nc2ccc(Cl)cn2c1C(=O)NCc1ccc(N2CCC(c3ccc(OC(F)(F)F)cc3)CC2)cc1 | -14 | -38 | 9.1 | -82.8 | -13% | -1% |
| COc1ccc(N2CCN(C(CNC(=O)C3CCCCC3)c3ccc4c(c3)OCO4)CC2)cc1 (stereo not given) | -13.9 | -19.8 | 79.2 | -134 | -1% | -6% |
| COc1cc(OC)cc(N2C(=O)N(Cc3ccc(C(C)(C)C)cc3)c3ccccc3S2(=O)=O)c1 | -17.1 | -11.7 | 44.6 | -49.6 | -1% | -12% |
| CCCCN(CCCC)S(=O)(=O)c1ccc(NC(=O)c2ccco2)cc1 | 4.6 | 72.5 | -1.2 | 59.6 | -4% | 2% |
| CCCCCCn1c(=N)n(CC(O)COc2cccc(C)c2)c2ccccc21 (stereo not given) | 29.1 | 23.7 | 36.5 | 20 | 4% | -4% |
| Clc1ccc(CCNc2cc(-c3ccccc3)nc3ncnn23)cc1 | 15 | -20 | 33.8 | -29.4 | 0% | -11% |
| CC(C)C(C(=O)Nc1ccc(S(=O)(=O)N(C)C)cc1)c1ccc(Cl)cc1 (stereo not given) | 11 | -23 | 32.3 | -56 | 4% | 2% |

| SMILES | hypnozoite quantity inhibition [1, 4] | hypnozoite quantity inhibition [1, 5] | schizont net growth area inhibition [2, 4] | schizont net growth area inhibition [2, 5] | hepatic nuclei reduction [3, 4] | hepatic nuclei reduction [3, 5] |
| --- | --- | --- | --- | --- | --- | --- |
| Cc1cc(NCC(C)C)c2n[nH]c(-c3ccccc3)c2n1 | 22 | 11 | 3.7 | -20.4 | 1% | -2% |
| COC1OC2OC3(C)CCC4C(C)CCC(C1C)C24OO3 (stereo not given) | -42 | 18 | 70.8 | 87 | -12% | -7% |
| OCCc1ccc(Nc2nccc(-c3nnc4ccccn34)n2)cc1 | -80 | -65 | 32.3 | -24.3 | -12% | -7% |
| COc1ccc(C2=NN(C3CCCCCC3)C(=O)[C@@H]3CC=CC[C@H]23)cc1OCCCCOc1ccc(-c2nn[nH]n2)cc1 | 32 | -18 | -7.3 | -106 | -1% | -1% |
| CN(C)c1cc(NC(=O)Nc2ccccc2)c2ccccc2n1 | 39 | -15 | 42.7 | -60.2 | 4% | 4% |
| COc1cccc(C(=O)NC(c2ccc(C)cc2)c2cc(Cl)c3cccnc3c2O)c1 (stereo not given) | -48.1 | -5.3 | 103 | -73.6 | -8% | -12% |
| COc1cc(OC)cc(C(=O)NCC2Cc3cc(Cl)cc(-c4ccncc4)c3O2)c1 (stereo not given) | 41 | -7 | 73.1 | -30.4 | 0% | -10% |
| O=C([C@@H](c1ccc(Cl)cc1)c1cccnc1)N1CCN(c2ccc(C(F)(F)F)cc2)CC1 | -51 | -10 | -26.9 | -11.7 | -5% | -6% |
| COc1ccc(CCN2CCC(NCc3cccc(N(C)C)c3)CC2)cc1 | 15 | -4 | 35.5 | -4.7 | 1% | -1% |
| CCc1ccc(CNCC(O)c2ccccc2)cc1 (stereo not given) | 7.6 | -22.6 | 14.9 | -73.2 | 0% | -15% |
| N#Cc1ccc(-c2cnc(N)c(-c3ccc(C(N)=O)cc3)n2)cc1 | 113 | -24 | 106 | 97.2 | -4% | -6% |
| Cc1cc(NC(=O)c2ccc(S(=O)(=O)N(Cc3ccccc3)C(C)C)cc2)no1 | -15 | -29 | -57.4 | 32.3 | -6% | 13% |
| CC(C)(C)OC(=O)N1CCN(c2cc(-c3ccc(Oc4ccccc4)cc3)n[nH]2)CC1 | -3 | -20 | 13.9 | -53.1 | -3% | -10% |
| COc1ccccc1N1CCN(C(CNS(=O)(=O)c2ccc(Cl)cc2)c2cccnc2)CC1 (stereo not given) | 12.6 | 26.5 | -35.1 | 39.6 | -5% | 6% |
| CCOC(=O)C1(Cc2ccccc2)CCN(Cc2cccc(OC)c2O)CC1 | 16.4 | 18.3 | -26.9 | -71 | -4% | -7% |
| CCn1c(SCC(=O)Nc2cc(C(F)(F)F)ccc2Cl)nc2ccccc2c1=O | 10.1 | 23.7 | 19.2 | 2.5 | 0% | -5% |
| CC(C)(C)c1ccc(C(=O)Nc2nc3ccccc3s2)cc1 | -18.3 | 7.4 | 15.4 | -116 | 2% | -6% |
| CCC(NC(=O)c1ccccc1NC(=O)c1ccc(C)cc1)C(=O)OC (stereo not given) | -17 | -39 | 21.8 | 2 | -11% | -4% |
| CCc1c(C)c(=N)c2ccccc2n1C | 12.1 | 49.6 | -124 | 18.2 | -2% | 5% |
| COc1ccc(C2=NN(C3CCCCCC3)C(=O)C2(C)C)cc1OCCCCOc1ccc(-c2nn[nH]n2)cc1 | 27 | 6 | -36.2 | 27.8 | -2% | -7% |

Ordered by count of non-hydrogen atoms (falling): some entries from above.

| SMILES | hypnozoite quantity inhibition [1, 4] | hypnozoite quantity inhibition [1, 5] | schizont net growth area inhibition [2, 4] | schizont net growth area inhibition [2, 5] | hepatic nuclei reduction [3, 4] | hepatic nuclei reduction [3, 5] |
| --- | --- | --- | --- | --- | --- | --- |
| COc1cc(OC)cc(C(=O)NCC2Cc3cc(Cl)cc(-c4ccncc4)c3O2)c1 (stereo not given) | 41 | -7 | 73.1 | -30.4 | 0% | -10% |
| CN(C)c1cc(NC(=O)Nc2ccccc2)c2ccccc2n1 | 39 | -15 | 42.7 | -60.2 | 4% | 4% |
| Cc1cc(NCC(C)C)c2n[nH]c(-c3ccccc3)c2n1 | 22 | 11 | 3.7 | -20.4 | 1% | -2% |
| CCc1c(C)c(=N)c2ccccc2n1C | 12.1 | 49.6 | -124 | 18.2 | -2% | 5% |

(further entries)

| SMILES | hypnozoite quantity inhibition [1, 4] | hypnozoite quantity inhibition [1, 5] | schizont net growth area inhibition [2, 4] | schizont net growth area inhibition [2, 5] | hepatic nuclei reduction [3, 4] | hepatic nuclei reduction [3, 5] |
| --- | --- | --- | --- | --- | --- | --- |
| O=C(Nc1ccc(-c2nc3cc4ccccc4cc3[nH]2)cc1)c1cccc(Br)c1 | -5 | 29 | 21.6 | -4.9 | 7% | -4% |
| O=C(NCc1cc(Cl)cc(Cl)c1)c1c(C(F)(F)F)nc2ccccn12 | 17 | -44 | 47.4 | -240 | 2% | -6% |
| Nc1ncnc2[nH]nc(Cc3cccc4ccccc34)c12 | -76 | -5 | -146 | -31.7 | -6% | 3% |
| CN1CCN(c2cc(-c3ccc(F)cc3)nc(-c3ccncc3)n2)CC1 | 25 | 16 | 15.3 | 21.4 | -5% | -8% |
| Cc1cccc(-c2nc(Nc3ccncn3)c3sccc3n2)n1 | 15 | -25 | 90.2 | -73.1 | 1% | -4% |
| CCCCc1c(C)nc2c(OC)cccc2c1O | -18.3 | 10.1 | 17.8 | -38.4 | -1% | -7% |
| Cc1[nH]c(-c2ccc(F)cc2)cc1C(=O)NC1CCN(Cc2ccccc2)CC1 | -5.7 | -30.7 | 16.2 | -24.9 | -2% | -13% |
| N=C(N)Nc1ccc(-c2ccc(-c3ccc(N=C(N)N)c(Cl)c3)o2)cc1Cl | -129 | 12 | -37.4 | 58.5 | -14% | -8% |
| CCCS(=O)(=O)N1CCC(CO)(Cc2ccccc2C(F)(F)F)CC1 | -17 | -29 | -23.8 | -18.5 | -9% | 0% |
| CS(=O)(=O)c1ccc(-c2cnc(N)c(-c3ccc(C(F)(F)F)nc3)c2)cc1 | 90 | -6 | 95.5 | 107 | -15% | -9% |
| CN(C)CCNc1cc(-c2ccccc2)nc2ccccc12 | -1.3 | 51.9 | -87.6 | 34.9 | -2% | 6% |
| O=C(NCc1nnc2n1CCCCC2)c1ccc(-c2ccc(F)cc2)o1 | -102 | -49 | 18 | -124 | -4% | 3% |
| CCOc1ccccc1CNC(=O)C1c2ccccc2C(=O)N(CC(C)C)C1c1cccs1 (stereo not given) | -13.9 | 29.2 | -27.7 | -52.8 | 4% | -4% |
| CCOc1cc(Br)c(C(C)NC(=O)c2cccc(OC)c2)cc1OCC (stereo not given) | -2 | 38.2 | 36.8 | -3.8 | 10% | 2% |
| COc1ccc(NC(=O)C2c3ccccc3C(=O)N(CC(C)C)C2c2cccs2)cc1Cl (stereo not given) | -5.1 | 21 | 39.6 | -5.1 | 3% | -8% |
| Cc1c(CCO)sc[n+]1CCCCCCCCCCCC[n+]1csc(CCO)c1C | -26 | 52 | 44.2 | 39.9 | -13% | -6% |
| CCC(Sc1nc2ccccc2o1)C(=O)Nc1nnc(C)s1 (stereo not given) | -51 | 12 | -23.6 | -22.5 | -1% | -8% |
| O=C(Nc1ccc(N2CCCCC2)c(Cl)c1)c1ccc(Br)o1 | 31.6 | 23.7 | -11.6 | -37.2 | -9% | -10% |
| CCN(CC)CCn1c(=N)n(CC(O)c2ccc(Cl)c(Cl)c2)c2ccccc21 (stereo not given) | -22.7 | 26.5 | 18.9 | 36.9 | -4% | -3% |
| Cc1nnc(NCc2cccc(Cl)c2)c2ccccc12 | -2 | -12 | 15.6 | -159 | -8% | -6% |
